Experimental data published in patent US4767765A, “N-substituted-N-[3-(1,2,4-triazolo-[4,3-b]pyridazin-6-yl )phenyl]alkanamides, carbamates and ureas” (American Cyanamid Company, priority 1987, dated 1988).
At least one compound was matched to its structure with a doubt left.

Tested on: Brain-Specific Receptors of Rats
Experiment: Inhibition of the binding of 3H-benzodiazepine to brain-specific receptors of rats
Design: species or system rat (Wistar)
Details: 3H-diazepam 1.5 nM or 3H-flunitrazepam 1.0 nM; rat cortex P2 fraction, pH 7.4, 30 minutes in ice; test concentration not given

## CCN(C(=O)N(C)C)c1cccc(-c2ccc3nnc(C)n3n2)c1 [N-Ethyl-N',N'-dimethyl-N-[(3-methyl-1,2,4-triazolo[4,3-b]pyridazin-6-yl)phenyl]urea]
  % Inhibition: 66%
